This assay concerns BDF1 mice, P388 leukemia ip, median survival T/C. Kind of assay: NCI In Vivo Anticancer Drug Screen. Data for tumor model P388 Leukemia (intraperitoneal) in B6D2F1 (BDF1) mice. To be noted: T/C endpoint: median survival time, higher T/C = longer survival. In short, it runs like this: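 T/C = treated-group survival ÷ vehicle-control survival; tumour transplanted into mice before dosing.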

[1] abbreviates: dose: 100.0 mg/kg/injection, schedule: Q04DX003 (ip), vehicle: saline.
[2] abbreviates: dose: 50.0 mg/kg/injection, schedule: Q01DX009 (ip), vehicle: Klucel (hydroxypropylcellulose) (HPC).
[3] abbreviates: dose: 100.0 mg/kg/injection, schedule: Q01DX009 (ip), vehicle: Klucel (hydroxypropylcellulose) (HPC).
Setting [4] is: dose: 150.0 mg/kg/injection, schedule: Q01DX009 (ip), vehicle: Klucel (hydroxypropylcellulose) (HPC).
The mark [5] stands for this setting: dose: 400.0 mg/kg/injection, schedule: Q04DX003 (ip), vehicle: saline with Tween-80.
[6] abbreviates: dose: 100.0 mg/kg/injection, schedule: Q04DX003 (ip), vehicle: saline with Tween-80.
[7] abbreviates: dose: 400.0 mg/kg/injection, schedule: Q01DX009 (ip), vehicle: saline with Tween-80.
The mark [8] stands for this setting: dose: 75.0 mg/kg/injection, schedule: Q01DX009 (ip), vehicle: saline.

The list does not hold the whole screen: it is rich in T/C values a quarter to a half above the control, in often repeated tests (any T/C) and in doses without a T/C. Further doses and runs are listed elsewhere. T/C: endpoint of the treated group in % of that of the vehicle group. Some entries give survivors of the animals treated and no T/C: the source holds a T/C of zero for them, seemingly a mark for toxic or unscored doses. Some survivor counts are full or nearly so, which does not show that the dose was tolerated: the source hardly ever lists a survival T/C far under the control, and the zero likely stands for such cases as well. Survivors were counted at the toxicity check, usually on the fifth day, unless a day is given; later deaths do not show. Schedule codes are those of the source, taken here to give the interval after Q, in days (D) or hours (H), and the number of doses after X. Where survival is the endpoint, this PubChem deposit counts one and a half times the control or more as active, and values a quarter to a half above the control carry no call in these data; other NCI protocols may use other cut-offs. Some doses were run more than once; the results are listed from low to high.

`Nc1ccn([C@@H](C=O)O[C@@H](C=O)CO)c(=O)n1`: the T/C by setting is: (dose: 13.3 mg/kg/injection, schedule: Q01DX009 (ip), vehicle: saline) 127 % of control; (dose: 20.0 mg/kg/injection, schedule: Q01DX009 (ip), vehicle: saline) 144 % of control; (dose: 30.0 mg/kg/injection, schedule: Q01DX009 (ip), vehicle: saline) 144 % of control; (dose: 44.0 mg/kg/injection, schedule: Q01DX009 (ip), vehicle: saline) 137 % of control; (dose: 66.0 mg/kg/injection, schedule: Q01DX009 (ip), vehicle: saline) 145 % of control; (dose: 100.0 mg/kg/injection, schedule: Q01DX009 (ip), vehicle: saline) 145 % of control. Under setting [1], the T/C was 145 % of control.
In the case of `COC(=O)C1(C(=O)OC)C2CC(C)=C(C)CC21` (configuration not stated), the survivor count (dose: 75.0 mg/kg/injection, schedule: Q04DX003 (ip), vehicle: saline) is reported as 6 of 6.
Regarding `CC1(O)CCC2C3CCC4=CC(=O)CCC4C3CCC21C` (configuration not stated), the survivor count under setting [2] is reported as 6 of 6; the survivor count (dose: 66.0 mg/kg/injection, schedule: Q01DX009 (ip), vehicle: Klucel (hydroxypropylcellulose) (HPC)) is 6 of 6; the survivor count under setting [3] is 6 of 6; the survivor count under setting [4] is recorded as 5 of 6; the survivor count (dose: 400.0 mg/kg/injection, schedule: Q04DX003 (ip), vehicle: other) is recorded as 0 of 6. Further, the T/C under setting [3] was 95, 104, 110, 127 % of control and the T/C under setting [4] is 100, 107, 110 % of control.
On to `CCCCNC(C)(C)CSSSCC(C)(C)NCCCC`, for which the survivor count was 5 of 6 (dose: 12.5 mg/kg/injection, schedule: Q01DX009 (ip), vehicle: other); 5 of 6 (dose: 50.0 mg/kg/injection, schedule: Q01DX009 (ip), vehicle: other); 2 of 6 (dose: 100.0 mg/kg/injection, schedule: Q01DX009 (ip), vehicle: other). In addition, the T/C (dose: 25.0 mg/kg/injection, schedule: Q01DX009 (ip), vehicle: other) was 143 % of control.
For `Cc1nc2nc(N)nc(N)c2nc1C`, under setting [5], the survivor count is recorded as 3 of 6.
On to `CCCCCn1c(C)cc(/C=C\c2ccc3cc(C)ccc3[n+]2C)c1C`, for which the T/C is, setting by setting: (dose: 0.5 mg/kg/injection, schedule: Q01DX009 (ip), vehicle: saline) 125 % of control; (dose: 0.66 mg/kg/injection, schedule: Q01DX009 (ip), vehicle: saline) 136 % of control; (dose: 1.0 mg/kg/injection, schedule: Q01DX009 (ip), vehicle: saline) 131 % of control; (dose: 1.0 mg/kg/injection, schedule: Q04DX003 (ip), vehicle: saline) 127 % of control; (dose: 2.0 mg/kg/injection, schedule: Q04DX003 (ip), vehicle: saline) 127 % of control. The survivor count is reported as 3 of 6 (dose: 4.0 mg/kg/injection, schedule: Q04DX003 (ip), vehicle: saline); 0 of 6 under setting [6]; 0 of 6 (dose: 200.0 mg/kg/injection, schedule: Q04DX003 (ip), vehicle: saline with Tween-80); 0 of 6 under setting [5].
On to `CNc1nc(N)nc(Nc2ccc(I)cc2)c1N=O`, for which, under setting [7], the survivor count is 5 of 6.
In the case of `O=[N+]([O-])c1ccc(S(=O)(=O)Cc2ccccc2)c2c1no[n+]2[O-]`, the survivor count (dose: 100.0 mg/kg/injection, schedule: Q01DX009 (ip), vehicle: saline with Tween-80) was 3 of 7.
In the case of `NCC=C1C2CC3CC(C2)CC1C3`, the survivor count under setting [1] was 3 of 6.
As to `CN(C)N=Nc1ccccc1[N+](=O)[O-]`, the T/C under setting [2] is 126 % of control. Further, for the setting “dose: 200.0 mg/kg/injection, schedule: Q01DX009 (ip), vehicle: Klucel (hydroxypropylcellulose) (HPC)”, the survivor count is 5 of 6.
In the case of `CC[N+](CC)(CC)CCCNC1=CC(=O)C(NCCC[N+](CC)(CC)CC)=CC1=O`, the survivor count reads like this: (dose: 1.56 mg/kg/injection, schedule: Q04DX003 (ip), vehicle: saline) 3 of 6; (dose: 25.0 mg/kg/injection, schedule: Q04DX003 (ip), vehicle: saline) 0 of 6; (dose: 50.0 mg/kg/injection, schedule: Q04DX003 (ip), vehicle: saline) 0 of 6; under setting [1], 0 of 6.
With `CCCCCC(O)CCCCC`, the survivor count under setting [7] is listed as 5 of 6.
Take `Cc1nc(N)c(Cl)nc1C`: the T/C under setting [6] is 127 % of control. The survivor count is listed as 6 of 6 under setting [6] and 6 of 6 under setting [5].
Turning to `CCC(CO)NC(=O)/C=C/c1ccc(Cl)cc1` (configuration not stated), the survivor count under setting [7] is on record as 4 of 6.
On to `O=S(=O)(Cc1ccc(Cl)cc1)c1nc2ccccc2s1`, for which, where the note is “dose: 200.0 mg/kg/injection, schedule: Q01DX005 (ip), vehicle: saline with Tween-80”, the survivor count is given as 3 of 5.
`CN(C)c1ncnc2c1ncn2C1OC(CO)C(N)C1O` (configuration not stated): the T/C is, setting by setting: (dose: 21.0 mg/kg/injection, schedule: Q01DX009 (ip), vehicle: saline) 147 % of control; under setting [8], 130 % of control. Moreover, under setting [8], the survivor count was 6 of 6.

For the origin of these results see PubChem BioAssay AID328 (DTP/NCI, 2004).
